In paper PMC10684580, “Unexpected dynamics in femtomolar complexes of binding proteins with peptides” (Nature Communications, 2023):
Entries after “also recorded” stand apart in the source; their conditions may differ.

Assays:
N^AM7C = test: [15N,1H]-HSQC peptide titration, N^AM7C; type: binding; conditions: 310 K
N^YM7C = test: [15N,1H]-HSQC peptide titration, N^YM7C/NM7C; type: binding

## (Lys-Arg)4 [(KR)4]
N^AM7C
  linewidth of bound-state signals: linewidths of the bound-state signals decrease when going from (KR)4 to (KR)5 to (KR)6; also recorded: much broader for the N^AM7C:(KR)4 complex than for the N^YM7C:(KR)4 complex
N^AM7C; 250 μM dArmRP
  exchange regime of bound-state signals: intermediate exchange
N^YM7C; HSQC titration and CSPs, (KR)4, N^YM7C (segmentally labeled for site preference)
  binding mode / preferred binding site: two-step process with an initial tight binding of the first peptide followed by weaker binding of a second peptide; also recorded: slight preference for the C-terminal part of the protein
N^YM7C; HSQC titration, 310 K, 250 μM dArmRP
  exchange regime on the NMR timescale: slow exchange is observed only up to 1 equiv. of (KR)4 for the Trp indole signals, after which signals follow further changes in the fast-exchange regime
